Consider 3 molecules from paper PMC10923831.

Sequences of proteins named here, by UniProt entry; tags and fusion partners are left off.
UniProt P12004: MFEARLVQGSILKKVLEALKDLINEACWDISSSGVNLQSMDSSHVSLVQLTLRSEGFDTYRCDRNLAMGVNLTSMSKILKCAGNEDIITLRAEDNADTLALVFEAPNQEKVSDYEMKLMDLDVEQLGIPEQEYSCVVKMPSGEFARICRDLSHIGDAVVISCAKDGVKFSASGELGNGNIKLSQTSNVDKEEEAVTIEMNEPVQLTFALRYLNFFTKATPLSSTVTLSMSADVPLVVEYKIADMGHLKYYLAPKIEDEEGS
UniProt P62993: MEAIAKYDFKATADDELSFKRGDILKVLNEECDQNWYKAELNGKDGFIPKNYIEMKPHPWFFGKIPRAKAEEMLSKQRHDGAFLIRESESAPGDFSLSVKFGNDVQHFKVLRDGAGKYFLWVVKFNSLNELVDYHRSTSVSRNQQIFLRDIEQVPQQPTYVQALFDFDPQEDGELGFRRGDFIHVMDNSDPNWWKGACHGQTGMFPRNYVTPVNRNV

No constants are given. Whether binding was seen depends on the method and setting. For some of these results: Binding seen in cells or lysates may run through a third protein. Some entries that bind do so weakly or less than the wild type.

In assay [1] the target is Tyrosine phosphorylated PCNA (pPCNA) (UniProt P12004). Description: MST; Monolith NT.115; 100 nM protein labelled with Atto 488, peptide or protein serially diluted typically from about 100 uM to 30 nM; 0.01 M HEPES pH 7.4, 0.15 M NaCl, 0.005% Surfactant P20; 22 °C; both purified.
Assay [2] addresses Proliferating cell nuclear antigen (PCNA), purified (UniProt P12004). Described as above.
In a further assay the target is GFP-tagged PCNA (UniProt P12004). Put plainly: FRET or BRET; FLIM/FRET in cells co-expressing RFP-tagged GRB2 and GFP-tagged PCNA; reduction of the average lifetime of the GFP-tagged PCNA. For orientation: BRET reads energy transfer from a luciferase to a nearby fluorophore.

Take “Growth factor receptor-bound protein 2 (GRB2), wild type (from UniProt P62993 1-217)”: the binding result in assay [1] and in assay [2] was “binds” each time.
Consider “RFP-tagged GRB2 (from UniProt P62993 1-217)”, for which the binding result with GFP-tagged PCNA is given as “binds”.

B1: Synthetic GRB2 PIP motif peptide (peptide)
peptide: GASHGQTGMFPRNYVT
Regarding B1, the binding result in assay [2] was “binds”.
